Source: the supplement of paper PMC10735217
The other results are listed elsewhere or left out. Single values are uncertain here, since repeats match poorly.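 In a drug-repurposing library screen, luminescence reads luciferase driven by eight TEAD-binding elements, stably integrated into human kidney-derived cells. Compounds scoring over five robust Z scores above the plate mean are called hits.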

Tested on: HEK293A TEAD-LUC reporter
Experiment: TEAD-luciferase reporter activity (YAP activation), robust Z score vs plate; higher = stronger YAP/TEAD activation
Details: 24 h

| SMILES | TEAD-luciferase reporter activity (compound concentration: 200 nM) | TEAD-luciferase reporter activity (compound concentration: 2 uM) | TEAD-luciferase reporter activity (compound concentration: 10 uM) |
| --- | --- | --- | --- |
| N=C(N)NCCCCCCC(=O)NCC(O)CC(=O)NCCC(=O)O (stereo not given) | inactive: -1.41 | inactive: 2.27 | inactive: 0.0746 |
| CCN(CC)CCS(=O)(=O)[C@@H]1CCN2C(=O)c3coc(n3)CC(=O)C[C@H](O)/C=C(C)/C=C\CNC(=O)/C=C/[C@@H](C)[C@H](C(C)C)OC(=O)[C@@H]12 [Dalfopristin] | inactive: 0.649 | inactive: 0.0372 | inactive: -1.38 |
| CC(=O)Oc1c(C)cc(OCC(O)CNC(C)C)c(C)c1C (stereo not given) [metipranolol] | inactive: -1.43 | inactive: -0.36 | inactive: -0.246 |
| O=C(/C=C/c1ccc2ccccc2n1)c1ccncc1 | inactive: -1.38 | inactive: -1.07 | inactive: 0.0816 |
| CC1CC(=O)NN=C1c1ccc2c(c1)OCC(=O)N2 (stereo not given) [Bemoradan] | inactive: 4.11 | inactive: -1.54 | inactive: -0.0268 |
| COc1ccc(-c2oc3c(CC=C(C)C)c(O)cc(O)c3c(=O)c2O)cc1 [Icaritin] | inactive: -0.948 | inactive: -0.409 | inactive: 1.85 |
| NS(=O)(=O)c1cc2c(cc1Cl)NC(CSCC(F)(F)F)NS2(=O)=O (stereo not given) | inactive: 2.45 | inactive: -0.906 | inactive: -0.79 |
| O=C(NC1CCCCC1)NS(=O)(=O)c1ccc2c(c1)CCC2 | inactive: -0.151 | inactive: -0.0253 | inactive: -0.105 |
| Cc1cc(Nc2cc(N)ncn2)c(=O)n2c1C(=O)NC21CCCCC1 [Tomivosertib] | inactive: 0.283 |  | inactive: -0.708 |
| Cc1cc(Nc2cc(N)ncn2)c(=O)n2c1C(=O)NC21CCCCC1 |  | inactive: -0.00983 |  |
| CC(=O)c1cc(C(=O)Nc2cc(Cl)c3c(c2Cl)CNCC3)ccc1OC(C)C | inactive: 4.62 | inactive: -1.26 | inactive: 1.56 |
| CCn1cc(C(=O)O)c(=O)c2cc(F)c(N3CCNCC3)nc21 [enoxacin] | inactive: 2.35 | inactive: 0.475 | inactive: 1.33 |
| CC(=O)c1ccc2c(c1)N(CCCN1CCC(CCO)CC1)c1ccccc1S2 | inactive: 0.668 | inactive: -0.544 | inactive: 3.49 |
| CCCCCC(O)c1ccc(N2C(=O)CC[C@@H]2CCCc2ccc(C(=O)O)s2)cc1 (stereo not given in full) [Aganepag] | inactive: -0.305 | inactive: 0.433 | inactive: 2.88 |
| O=S(=O)(Nc1cnc(Oc2cc3ccccc3cn2)c(Cl)c1)c1ccc(Cl)cc1Cl | inactive: 0.308 | inactive: -1.07 | inactive: -0.823 |
| CC(C)[C@H](NC(=O)[C@H](CC(=O)O)NC(=O)[C@H](CCCCN)NC(=O)[C@@H](N)CCCNC(=N)N)C(=O)N[C@@H](Cc1ccc(O)cc1)C(=O)O [thymopentin] | inactive: -0.771 | inactive: 2.06 | inactive: -0.536 |

Given tab-delimited: part of the list above
SMILES	TEAD-luciferase reporter activity (compound concentration: 200 nM)	TEAD-luciferase reporter activity (compound concentration: 2 uM)	TEAD-luciferase reporter activity (compound concentration: 10 uM)
CCN(CC)CCS(=O)(=O)[C@@H]1CCN2C(=O)c3coc(n3)CC(=O)C[C@H](O)/C=C(C)/C=C\CNC(=O)/C=C/[C@@H](C)[C@H](C(C)C)OC(=O)[C@@H]12 [Dalfopristin]	inactive: 0.649	inactive: 0.0372	inactive: -1.38
CC(=O)Oc1c(C)cc(OCC(O)CNC(C)C)c(C)c1C (stereo not given) [metipranolol]	inactive: -1.43	inactive: -0.36	inactive: -0.246
